Measured values: article PMC7290792
These are yes or no findings as the source states them, for the method shown. Binding seen in cells or lysates may run through a third protein. Some entries that bind do so weakly or less than the wild type. Tags and fused reporters may be left off the sequences shown. Each block holds one binder with its values, some of them ahead of it.

Legend:
Assay in all cases: co-IP; COS-1 cells transfected, cultured in 25 mM glucose; lysis in 200 mM NaCl, 20 mM HEPES pH 7.4, 1% NP-40; immunoprecipitated with ChREBP, LXRα, LXRβ or FLAG (for LID) antibodies on protein A Dynabeads, 2 h at 4 °C; immunoblot; in one panel cells treated with 0.1% DMSO or GW3965 (1 µM) for 18 h, GW3965 reduced the ChREBPα:LXRα interaction
[1] = target: T1, carbohydrate responsive element-binding protein alpha (ChREBPα), full-length, FLAG-tagged (pCMV4-FLAG-mChREBPα) (mouse) (UniProt Q99MZ3)
T1 sequence: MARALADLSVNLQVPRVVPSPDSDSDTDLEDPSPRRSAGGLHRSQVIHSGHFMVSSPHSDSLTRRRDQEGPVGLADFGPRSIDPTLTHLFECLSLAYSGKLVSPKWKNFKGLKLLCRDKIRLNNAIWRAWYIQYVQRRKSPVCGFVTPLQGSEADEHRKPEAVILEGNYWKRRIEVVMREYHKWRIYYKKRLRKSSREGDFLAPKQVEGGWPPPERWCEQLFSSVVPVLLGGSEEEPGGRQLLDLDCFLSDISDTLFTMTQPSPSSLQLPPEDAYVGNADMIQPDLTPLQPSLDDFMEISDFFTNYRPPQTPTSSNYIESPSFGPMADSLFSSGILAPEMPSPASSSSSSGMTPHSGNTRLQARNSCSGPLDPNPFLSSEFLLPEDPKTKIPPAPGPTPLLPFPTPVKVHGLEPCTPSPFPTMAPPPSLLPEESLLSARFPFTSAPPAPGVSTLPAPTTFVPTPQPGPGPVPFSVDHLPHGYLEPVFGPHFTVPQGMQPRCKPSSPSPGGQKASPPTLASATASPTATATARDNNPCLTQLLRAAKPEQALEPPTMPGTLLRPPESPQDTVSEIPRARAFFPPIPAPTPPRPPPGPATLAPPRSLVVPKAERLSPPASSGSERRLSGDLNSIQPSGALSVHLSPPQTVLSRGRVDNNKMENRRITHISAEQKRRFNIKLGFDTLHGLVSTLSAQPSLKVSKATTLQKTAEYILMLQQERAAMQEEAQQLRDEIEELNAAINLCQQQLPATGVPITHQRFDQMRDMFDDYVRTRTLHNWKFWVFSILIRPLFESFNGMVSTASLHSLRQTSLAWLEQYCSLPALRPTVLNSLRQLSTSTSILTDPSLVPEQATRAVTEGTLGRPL

[2] = target: T2, liver X receptor alpha (LXRα), full-length, FLAG-tagged (not stated (human or mouse cDNA cloned)) (UniProt Q13133)
T2 sequence: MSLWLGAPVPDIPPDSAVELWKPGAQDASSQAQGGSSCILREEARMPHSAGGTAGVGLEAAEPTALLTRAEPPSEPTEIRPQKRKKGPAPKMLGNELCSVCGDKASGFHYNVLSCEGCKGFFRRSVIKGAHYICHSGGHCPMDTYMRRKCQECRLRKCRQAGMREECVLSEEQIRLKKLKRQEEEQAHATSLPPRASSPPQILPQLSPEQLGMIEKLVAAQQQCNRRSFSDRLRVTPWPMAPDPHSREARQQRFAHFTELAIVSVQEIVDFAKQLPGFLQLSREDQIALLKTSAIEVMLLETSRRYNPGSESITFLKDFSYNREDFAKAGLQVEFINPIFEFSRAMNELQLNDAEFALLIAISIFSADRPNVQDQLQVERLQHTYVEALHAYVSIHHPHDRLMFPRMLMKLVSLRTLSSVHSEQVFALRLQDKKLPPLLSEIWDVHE

[3] = target: T3, liver X receptor beta (LXRβ), FLAG-tagged (pcDNA3-FLAG-hLXRβ) (human) (UniProt P55055)
T3 sequence: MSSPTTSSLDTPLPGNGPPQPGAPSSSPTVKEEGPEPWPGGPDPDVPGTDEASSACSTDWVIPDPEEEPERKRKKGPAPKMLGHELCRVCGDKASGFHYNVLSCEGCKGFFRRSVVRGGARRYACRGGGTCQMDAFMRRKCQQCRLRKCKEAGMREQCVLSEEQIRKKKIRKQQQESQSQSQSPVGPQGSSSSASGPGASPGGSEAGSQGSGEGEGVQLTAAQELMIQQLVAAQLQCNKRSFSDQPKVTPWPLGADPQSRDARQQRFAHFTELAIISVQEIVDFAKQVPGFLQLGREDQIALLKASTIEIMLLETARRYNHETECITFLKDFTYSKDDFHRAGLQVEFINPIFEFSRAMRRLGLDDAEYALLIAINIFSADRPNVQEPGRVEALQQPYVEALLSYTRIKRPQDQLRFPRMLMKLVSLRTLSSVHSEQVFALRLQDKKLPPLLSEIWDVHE

B2: LXRα truncation, amino acids 166-447 (hinge domain and LBD), FLAG-tagged (domain or fragment, UniProt Q13133-1 166-447)
chain: ECVLSEEQIRLKKLKRQEEEQAHATSLPPRASSPPQILPQLSPEQLGMIEKLVAAQQQCNRRSFSDRLRVTPWPMAPDPHSREARQQRFAHFTELAIVSVQEIVDFAKQLPGFLQLSREDQIALLKTSAIEVMLLETSRRYNPGSESITFLKDFSYNREDFAKAGLQVEFINPIFEFSRAMNELQLNDAEFALLIAISIFSADRPNVQDQLQVERLQHTYVEALHAYVSIHHPHDRLMFPRMLMKLVSLRTLSSVHSEQVFALRLQDKKLPPLLSEIWDVHE
binding [1]: binds

B4: ChREBPα low glucose inhibitory domain (LID), FLAG-tagged, amino acids 1-178 (domain or fragment, UniProt Q99MZ3-1 1-178)
chain: MARALADLSVNLQVPRVVPSPDSDSDTDLEDPSPRRSAGGLHRSQVIHSGHFMVSSPHSDSLTRRRDQEGPVGLADFGPRSIDPTLTHLFECLSLAYSGKLVSPKWKNFKGLKLLCRDKIRLNNAIWRAWYIQYVQRRKSPVCGFVTPLQGSEADEHRKPEAVILEGNYWKRRIEVVM
binding [2]: binds

Other lines, results leading:

binding [1]: binds
B1: liver X receptor alpha (LXRα), full-length, FLAG-tagged (protein, UniProt Q13133-1 1-447)
chain: T2 sequence

binding [2]: binds | binding [3]: binds
B3: carbohydrate responsive element-binding protein alpha (ChREBPα), full-length, FLAG-tagged (pCMV4-FLAG-mChREBPα) (protein, UniProt Q99MZ3-1 1-864)
chain: T1 sequence
